PubChem BioAssay AID1259272 – Sanger Institute, 2017
Screen: 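Kinase knock-downs lethal to colorectal cancer cells, with or without anchor drugs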 (primary screen). System: SW1116 human colorectal cancer cells. Knock-down reagent: siRNA pool against human genes. Conditions: anchor drugs BYL719 (1 µM), cetuximab (5 µg/ml) or trametinib (10 nM), or DMSO vehicle; exposure length not given. Measurement: 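Replicate-averaged viability versus control-pool wells, with a robust z-score for siRNA alone and a per-drug synergy score (BYL719, cetuximab, trametinib)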. Direction: viability z-score, no drug: higher = more cells remaining; strongly negative means essential gene; viability, no drug: higher = more viable cells. Units: viability, no drug in fraction of control. Rule for the call: 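a robust z-score under -3 with siRNA and no drug marks the gene essential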. Meaning of the calls: active = essential (knock-down alone); inactive = no change.
The deposit covers 794 reagents; this is a part drawn at random. In the full data, 7 (0.88%) got an active call. 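Essential calls reflect knock-down without drug only, not synergy with drugs; drug exposure length not given.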 Unmarked entries are inactive. Viability is capped at 1. Not all columns of the deposit are shown. Not given: the amount of reagent, the time to read-out.

What is on record for CDADC1?
viability z-score, no drug: -0.557; viability, no drug: 0.851

With DNMT3A, what does the deposit list?
viability z-score, no drug: 0.842; viability, no drug: 1

For ULK3, what does the deposit list?
viability z-score, no drug: 0.842; viability, no drug: 1

Which result is listed for ZC3H11A?
viability z-score, no drug: -0.123; viability, no drug: 0.897

With CAMK2B, what was measured?
viability z-score, no drug: 0.842; viability, no drug: 1

What is on record for RSKR?
viability z-score, no drug: 0.842; viability, no drug: 1

For SRGAP3, what does the deposit list?
viability z-score, no drug: 0.842; viability, no drug: 1

Which result is listed for CDKL4?
viability z-score, no drug: -1.62; viability, no drug: 0.737

What did the screen give for MAPK11?
viability z-score, no drug: 0.842; viability, no drug: 1

With ATM, what does the deposit list?
viability z-score, no drug: -1.27; viability, no drug: 0.775

For PIP4K2C, how do the results read?
viability z-score, no drug: 0.0794; viability, no drug: 0.919

With COASY, what was measured?
viability z-score, no drug: -2.51; viability, no drug: 0.642

For DIS3, how do the results read?
viability z-score, no drug: 0.82; viability, no drug: 0.998

What is on record for MAP3K15?
viability z-score, no drug: 0.842; viability, no drug: 1

For AKT1, what was measured?
viability z-score, no drug: 0.207; viability, no drug: 0.932

What is on record for PDGFRA?
viability z-score, no drug: 0.842; viability, no drug: 1

For MAST4, what was measured?
viability z-score, no drug: 0.605; viability, no drug: 0.975

What did the screen give for CDK17?
viability z-score, no drug: -0.174; viability, no drug: 0.892

Which result is listed for HIPK2?
viability z-score, no drug: 0.842; viability, no drug: 1

What is on record for PRKCD?
viability z-score, no drug: 0.0239; viability, no drug: 0.913

For NUCKS1, what does the deposit list?
viability z-score, no drug: 0.842; viability, no drug: 1

What is on record for PFKFB1?
viability z-score, no drug: -0.0862; viability, no drug: 0.901

How did the screen score SOX9?
viability z-score, no drug: 0.701; viability, no drug: 0.985

How did the screen score DAPK3?
viability z-score, no drug: -2.64; viability, no drug: 0.63

What is on record for PIK3CD?
viability z-score, no drug: 0.842; viability, no drug: 1

With NME3, what does the deposit list?
viability z-score, no drug: 0.601; viability, no drug: 0.974

For KMT2B, what was measured?
viability z-score, no drug: -1.11; viability, no drug: 0.792

What is on record for BMPR2?
viability z-score, no drug: 0.842; viability, no drug: 1

Reprinted from the entries so far, 3 entries:
PFKFB1 — viability z-score, no drug: -0.0862; viability, no drug: 0.901
SOX9 — viability z-score, no drug: 0.701; viability, no drug: 0.985
DAPK3 — viability z-score, no drug: -2.64; viability, no drug: 0.63
